{"source": "patent US5310745A", "about": "“Antiviral compounds” (priority 1992, dated 1994)", "test_system": "visna virus", "assay": "Plaque reduction assay, inhibition of visna virus in vitro", "assay_type": "cell-based", "settings": "1.0 mM; Table 2", "excerpt": "Visna virus, a lentivirus genetically very similar to the AIDS virus, is pathogenic for sheep and goats. See Sonigo et al., Cell 42, 369-382 (1985); Haase, Nature 322, 130-136 (1986). Inhibition of visna virus replication in vitro as a useful model for human immunodeficiency virus (HIV) and its inhibition by test compounds has been described by Franket al., Antimicrobial Agents and Chemotherapy 31 (9), 1369-1374 (1987). The N-butyl derivative of 1,5-dideoxy-1,5-imino-D-glucitol, also referred to as n-butyl-deoxynojirimycin (N-Bu-DNJ), was used as a control standard for comparison with various novel compounds of this invention.\nVarious compounds as prepared above were tested for inhibition of visna virus in vitro in a plaque reduction assay as follows:\nSheep choroid plexus (SCP) cells were obtained from American Type Culture Collection (ATCC) catalogue number CRL 1700 and were routinely passaged in vitro in Dulbecco's Modified Eagles (DME) medium supplemented with 20% fetal bovine serum (FBS). SCP cells were passaged once per week at a 1:2 or 1:3 split ratio. Visna was titrated by plaque assay in six-well plates. Virus pools were stored at -70° C.\nSCP cells were cultured in 6-well plates to confluence. […] To terminate the test: cultures were fixed in 10% formalin, the agar removed, the monolayers stained with 1% crystal violet and plaques counted. […]", "note": "At least one structure is not confirmed: it was looked up by name or label, or the drawing left a doubt.", "data": [{"smiles": "CCCC(=O)OC[C@H]1NC[C@H](OC(=O)CCC)[C@@H](OC(=O)CCC)[C@@H]1OC(=O)CCC", "note": "[Example 42, 1,5-Dideoxy-1,5-imino-D-glucitol, tetrabutyrate]", "values": [{"measurement": "% Plaque Reduction", "result": "Toxic"}]}]}
